# Laboratory results reported in PubChem BioAssay AID493014 (National Center for Advancing Translational Sciences (NCATS), 2011).
# This is one part of the list. The main result of the screen is listed elsewhere. These columns were measured beside it and carry no call. The list favours compounds with an active or inconclusive main result. Words in brackets tell the shape of the fitted curve; partial curves, single points and poor fits give uncertain potencies.
# Assay: qHTS Assay to Find Inhibitors of Chronic Active B-Cell Receptor Signaling
# Conditions: ABC-DLBCL IkBa-CBG/CBR reporter, luminescence ratio (green luciferase fused to IkBa over red control in TMD8 lymphoma cells), 4 h
# Excerpt: NIH Molecular Libraries Probe Production Network [MLPCN] NIH Chemical Genomics Center [NCGC] MLPCN Grant: 1 R03 DA031086-01A1 PI Name: Dr. R. Eric Davis NCGC Assay Overview: Diffuse large B-cell lymphoma (DLBCL) is the most common category of non-Hodgkin lymphoma, with ~20,000 new cases per year in the United States. DLBCL should be regarded as a collection of different neoplasms. Microarray gene expression analysis has defined two principal types of DLBCL, named for their similarity to normal B cell stages or activation states: a germinal center B-cell (GCB) type, and an activated B-cell (ABC) type. In ABC-DLBCL, a constitutive high-level activity of the NF-kappaB family of transcription factors has been observed (1) and NF-kappaB target genes are more highly expressed in ABC primary tumors than in GCB tumors. Functional studies have shown a constitutive high-level activity of the IkappaB (inhibitor of kappa-B) kinase (IKK) complex. […] Further analysis of DLBCL primary tumors for NF-kappaB target gene expression imply that although CARD11 is required for constitutive IKK activity in all ABC-DLBCL lines, mutations in CARD11 may be the root cause of IKK activation only in lines or tumors with such mutations. In other words, CARD11 mutations may explain NF-kappaB activation in only 10% of ABC-DLBCL cases. […] This process has been termed 'chronic active BCR signaling' (CABS). The goal of this screen is to find small-molecule inhibitors of the CABS pathway found in ABC-DLBCL lines using a cell-based assay that measures IkappaBalpa stability, which has already been extensively validated in the OCI-Ly3 line (PubChem AID:445; REF: 4). […] The assay uses green (CBG68) and red (CBR) emitting beetle luciferases [Chroma-GloTM developed by Promega Corp.] where the green luciferase is fused to IkappaBalpha and the red luciferase is present in its native state. Both luciferase genes are stably present in the TMD8 human ABC DLBCL cell line, but their expression is under the control of tetracycline-inducible promoters. Following the addition of doxycycline to induce expression of the luciferases, the green luminescence in control cultures rises only slowly because the CBG fusion partner IkappaBalpha is targeted by IKK activity for rapid degradation. In contrast, green luminescence rises rapidly in the presence of proteasome inhibitors or IKK inhibitors. The rise in red luminescence of CBR is not affected by proteasome or IKK inhibitors, and serves as normalization for cell number and nonspecific effects. Compounds were screened as a concentration-titration series that ranged from 46 uM to 3 nM.
# NCGC Assay Protocol Summary: Cells were seeded in 1536-well plates at 5000 cells/4uL in IMDM medium containing 0.5% FBS, w/o phenol red, 1% penicillin/streptomycin. Then, 23 nL of compounds or DMSO were delivered to each well using a pin tool. One uL 20ng/ml doxycycline was then dispensed into white solid 1536-well plates and the plates were incubated at 37C/5% C02 in a cell incubator for 4 hrs. Then 4 uL luminescent substrate mix (in-house prepared: 150 mM Tris-Cl, pH 7.6, 3 mM MgCl2, 1% Triton X-100, 5 mM DTT, 0.2 mM CoA, 0.15 mM ATP, 5 mM D-luciferin, final concentrations) was added to each well. The plate was incubated at r.t. for 10-15 min. The plates were measured on a ViewLux plate reader for green luminescence (540/20 nm filter) and red luminescence (618/8 nm filter). The green and red luminescent signals were corrected for red and green luminescence filter overlap using previously determined filter calibration constants (determined using the procedure outlined in the Promega Technical Manual; REF 4). The %Activity was determined from the ratio of corrected green/red luminescent values. MG132 were used as control. […] Red luminescent %Activity was normalized to the difference between red luminesence in basal cells (0%Activity) and zero luminescence (-100% Activity). […]
# [1] = measured here: CBR red luminescence, cell number
SMILES,AC50 [1],AC50 (measured here: IkBa-CBG green luminescence)
COc1cccc(C2CC(C(F)(F)F)n3ncc(C(=O)Nc4c(C)n(C)n(-c5ccccc5)c4=O)c3N2)c1 (configuration not stated),"14.6 µM [falling, single point]",
CCC(=O)N1CCN(c2ccccc2NC(=O)COc2ccc(C(C)C)cc2)CC1,"25.1 µM [falling, single point]",
COC(=O)/C(=C\Nc1ccccc1)NC(=O)c1ccc(Cl)cc1Cl,"25.9 µM [rising, single point]",
Cc1ccc(C)c(C(=O)C(C)OC(=O)c2cccn2C)c1 (configuration not stated),"8.91 µM [rising, partial curve, poor fit]",
Cc1ccc(O)c(N=CC2=C(O)c3ccccc3C2=O)c1,"17.8 µM [falling, single point]",
CC(C)(C)c1ccc(OCc2cnc(Cl)s2)cc1,"28.2 µM [rising, partial curve, poor fit]",
Cc1ccccc1C(=O)NC(=S)NCC1CCCO1 (configuration not stated),"3.55 µM [falling, single point]",
CCOc1ccc(C(O)Cn2c(=N)n(CCN3CCCCC3)c3ccccc32)cc1 (configuration not stated),"29.1 µM [falling, partial curve, poor fit]",
COc1cccc(/C=N/NC(=O)c2ccoc2C)c1O,"5.62 µM [falling, partial curve]",
COc1cccc(-c2nnc(NC(=O)c3ccccc3Br)o2)c1,"8.91 µM [falling, partial curve]",
COCC(=O)N1CCCC(CNS(=O)(=O)c2ccc(OC)cc2)C1 (configuration not stated),"8.91 µM [rising, partial curve, poor fit]",
COc1cc(C(=O)NCc2cn3cccc(C)c3n2)cc(OC)c1OC,"0.651 µM [rising, partial curve, poor fit]",
Cc1cccc(OCC(=O)N(Cc2ccco2)C2CCS(=O)(=O)C2)c1C (configuration not stated),"17.8 µM [falling, partial curve, poor fit]",
S=C1SCN(CC2CC2)CN1CC1CC1,"8.91 µM [rising, partial curve, poor fit]",
C=CC[n+]1c(/C=C2\C=Cc3cc(C)ccc3N2CC)ccc2ccccc21,"28.2 µM [rising, single point]",
O=C(COc1cc(O)c2c(=O)cc(-c3ccccc3)oc2c1)c1ccc(F)cc1,"35.5 µM [rising, single point]",
Cc1ccsc1C(=O)NCc1ccc(F)cc1,"15.8 µM [falling, single point]",
CCCCOP(=O)(c1ccc(N(C)C)cc1)C(O)c1ccc(OC)c(OC)c1 (configuration not stated),"22.4 µM [rising, single point]",
Cc1c(C)c2c(OCC(=O)N[C@@H](C(=O)O)c3ccccc3)cc3c(c2oc1=O)CCC(C)(C)O3,"12.6 µM [falling, partial curve]",
COc1ccc(NCc2nc3ccccc3n2CCOc2ccccc2)cc1,"0.461 µM [falling, partial curve, poor fit]",
Cc1ccccc1S(=O)Cc1ccc(C(=O)N2CCN(C(=O)c3ccco3)CC2)o1 (configuration not stated),"15.8 µM [falling, partial curve, poor fit]",

SMILES,AC50 [1],AC50 (measured here: IkBa-CBG green luminescence)
COc1ccc(Cl)cc1NC(=O)COc1cccc(-n2cnnn2)c1,"7.31 µM [rising, partial curve, poor fit]",
CC(C)CN1C(=O)C(=Nc2cccnc2)c2ccccc21,"35.5 µM [rising, single point]",
Cc1occc1C(=O)Nc1ccc2c(c1)CCC2,"2.59 µM [falling, partial curve]",
Cc1ccc(N(CC(=O)NCC2CCCO2)C(=O)CCC(=O)Nc2nccs2)cc1 (configuration not stated),"10 µM [falling, partial curve, poor fit]",
CC(C)(C)OC(=O)C[C@@H]1C/C=C\C[C@@H](CC(=O)N[C@@H](CO)Cc2ccccc2)C(=O)N2CCC[C@@H]2COC1=O,"23.1 µM [rising, single point]",
O=C(O)C/C(=C\c1ccc(N2CCOCC2)c([N+](=O)[O-])c1)c1nc2ccccc2s1,"20 µM [rising, partial curve, poor fit]",
CCOC(=O)N1CCN(C(=O)c2ccc(C)c(S(=O)(=O)N3CCCCC3)c2)CC1,"17.8 µM [falling, single point]",
Cc1ccc(OCCSc2nc3ccccc3n2CC(=O)O)c(C(C)C)c1,"17.8 µM [rising, partial curve]",
Cc1cc(S(=O)(=O)N2CCN=C2c2ccccc2)c(C)cc1Cl,"18.4 µM [rising, single point]",
CCOC(=O)c1cnn(-c2ccc(NS(=O)(=O)c3ccc(Cl)cc3)cc2)c1C(F)(F)F,"5.01 µM [falling, full curve, poor fit]",
Clc1ccc(SCCn2ccnc2)cc1,"11.2 µM [rising, partial curve, poor fit]",
CC(C)c1nc(SCC(=O)N2CC(=O)Nc3ccccc32)c2ccccc2n1,"20 µM [falling, partial curve, poor fit]",
COc1ccccc1C(=O)Oc1ccccc1C(=O)Nc1ccccc1,"12.6 µM [falling, partial curve]",
CS(=O)(=O)N(CC(=O)NC1CCCC1)c1ccc2c(c1)OCCO2,"0.651 µM [falling, full curve, poor fit]",
CN(C)S(=O)(=O)c1c(Cl)cccc1Cl,"2.91 µM [rising, full curve, poor fit]",
O=C(Nc1nc2ccc([N+](=O)[O-])cc2s1)c1ccco1,"0.708 µM [falling, full curve]",
O=S(=O)(Nc1cccc2cccnc12)c1ccccc1,"3.55 µM [rising, full curve, poor fit]","3.55 µM [falling, full curve]"
Nc1c(N=Nc2ccccc2F)c(=O)[nH]n1-c1ccccc1,"1.78 µM [falling, full curve]",
O=C(Nc1ccc2c(c1)CCCN2C(=O)c1cccs1)c1c(F)cccc1F,"8.91 µM [falling, partial curve, poor fit]",
COc1ccc(-c2noc(CSc3nnc(-c4ccncc4)n3-c3ccc(F)cc3)n2)cc1OC,"0.00517 µM [rising, full curve, poor fit]",

# 11 successive records from above, for reference:
SMILES,AC50 [1],AC50 (measured here: IkBa-CBG green luminescence)
CC(C)CN1C(=O)C(=Nc2cccnc2)c2ccccc21,"35.5 µM [rising, single point]",
Cc1occc1C(=O)Nc1ccc2c(c1)CCC2,"2.59 µM [falling, partial curve]",
Cc1ccc(N(CC(=O)NCC2CCCO2)C(=O)CCC(=O)Nc2nccs2)cc1 (configuration not stated),"10 µM [falling, partial curve, poor fit]",
CC(C)(C)OC(=O)C[C@@H]1C/C=C\C[C@@H](CC(=O)N[C@@H](CO)Cc2ccccc2)C(=O)N2CCC[C@@H]2COC1=O,"23.1 µM [rising, single point]",
O=C(O)C/C(=C\c1ccc(N2CCOCC2)c([N+](=O)[O-])c1)c1nc2ccccc2s1,"20 µM [rising, partial curve, poor fit]",
CCOC(=O)N1CCN(C(=O)c2ccc(C)c(S(=O)(=O)N3CCCCC3)c2)CC1,"17.8 µM [falling, single point]",
Cc1ccc(OCCSc2nc3ccccc3n2CC(=O)O)c(C(C)C)c1,"17.8 µM [rising, partial curve]",
Cc1cc(S(=O)(=O)N2CCN=C2c2ccccc2)c(C)cc1Cl,"18.4 µM [rising, single point]",
CCOC(=O)c1cnn(-c2ccc(NS(=O)(=O)c3ccc(Cl)cc3)cc2)c1C(F)(F)F,"5.01 µM [falling, full curve, poor fit]",
Clc1ccc(SCCn2ccnc2)cc1,"11.2 µM [rising, partial curve, poor fit]",
CC(C)c1nc(SCC(=O)N2CC(=O)Nc3ccccc32)c2ccccc2n1,"20 µM [falling, partial curve, poor fit]",
